Source: PubChem BioAssay AID686943 (Drosophila RNAi Screening Center, 2013)

- Aim: 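Fly genes whose loss alters ERK activation after insulin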 (primary screen)
- Cells: Drosophila S2R+ haemocyte-like cells expressing YFP-tagged ERK (Rolled)
- Reagent: long dsRNA against Drosophila genes
- Treatment: insulin stimulation versus unstimulated cells; dose and duration not given
- Measurement: 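Antibody staining for doubly phosphorylated ERK divided by ERK-YFP signal, as plate z-scores, in insulin-treated and untreated cells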
- Scale: replicate 1, z-score of dpERK with insulin: higher = more active ERK per ERK-YFP after insulin
The deposit covers about 23,000 reagents; shown is a random part of those with a known target gene and a result. 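Extra replicates exist only for a retested subset of genes; insulin dose and duration not given; both raised and lowered dpERK matter.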 A plus sign joins genes that one reagent is predicted to hit. Further read-outs or replicates are left out here. Not given: the amount of reagent, the time to read-out.

replicate 1, z-score of dpERK with insulin, by target gene and reagent
CG33287: DRSC22929 0.34
CG32579: DRSC19872 -0.28
Ugt303B3 (UDP-glycosyltransferase family 303 member B3): DRSC14199 -0.99
zye: DRSC11784 0.64
CG34161: DRSC01132 0
Lectin-galC1 (Galactose-specific C-type lectin): DRSC03362 -0.31
CG14563: DRSC11724 0.96
CG6790: DRSC16117 -1.18
CG6602: DRSC10673 -0.51
eco (Establishment of cohesion): DRSC11006 -0.99
CG10663: DRSC09770 -0.7
dop (drop out): DRSC10655 1.48
Npc2d (Niemann-Pick type C-2d): DRSC14551 0.41
asRNA:CR43259 + CG31089: DRSC15934 0.37
CG3649: DRSC04400 1.41
Gdh (Glutamate dehydrogenase): DRSC16679 0.61
Spt (Spitting Image): DRSC07123 0.63
Ugt303B2 (UDP-glycosyltransferase family 303 member B2): DRSC14198 0.19; DRSC22864 0.28
RtGEF (Rho-type guanine nucleotide exchange factor): DRSC03604 0.02; DRSC22207 -0.81
Sec24AB (Secretory 24AB): DRSC06478 0.57
CG30022: DRSC22405 0.87
CG33125: DRSC00145 -0.1
CG9646: DRSC07342 -0.1
SA1 (Stromalin 1): DRSC03424 0.91
CG6178: DRSC15984 0.37
CG33642: DRSC01325 1.07
CR42745 (retired record): DRSC13756 0.38
Datp (Diadenosine tetraphosphatase): DRSC01102 -0.36
serp (serpentine): DRSC11035 0.45; DRSC11036 1.5
CG31659: DRSC00760 -0.04
Lcp3 (Larval cuticle protein 3): DRSC07457 0.97
gw (gawky): DRSC17135 3.5; DRSC17160 0.34
ND-51 (NADH dehydrogenase (ubiquinone) 51 kDa subunit): DRSC03145 -0.19
CG13285: DRSC09960 0.56
Lamtor3 (Late endosomal/lysosomal adaptor, MAPK and MTOR activator 3): DRSC02815 -0.8
CG17104: DRSC02573 0.5
CG42331: DRSC14633 -0.93; DRSC16126 0.67
CG15525: DRSC15062 0.48
SmF (Small ribonucleoprotein particle protein SmF): DRSC07397 0.14
CG15027: DRSC19608 0.45
CG18682 (retired record): DRSC15373 0.88; DRSC15374 1.19
mld (molting defective): DRSC13681 -2.35; DRSC14622 0.21
CG7215 + Prx5: DRSC16214 0.04; DRSC16215 -0.22
CG14160: DRSC10161 0.21
Pex14 (Peroxin 14): DRSC11754 0.72
CG3124: DRSC04339 1.86
Nipsnap: DRSC20169 0.37
TwdlX (TweedleX): DRSC19151 -0.66
Osi12 (Osiris 12): DRSC12177 0.94
ppk30 (pickpocket 30): DRSC15302 -0.01
PH4alphaSG1 (prolyl-4-hydroxylase-alpha SG1): DRSC15080 -0.27
CG6511: DRSC10656 -0.36
Smug: DRSC15762 0.6
CG4049: DRSC04443 -0.09
Hpd (4-hydroxyphenylpyruvate dioxygenase): DRSC11670 -0.3
Orc4 (Origin recognition complex subunit 4): DRSC04634 -0.7
Cluap1 (Clusterin associated protein 1): DRSC20637 0.66
Pdf (Pigment-dispersing factor): DRSC16786 -0.13
CG15535: DRSC15071 0.55
CG13771: DRSC02277 -0.71
Hap40 (Huntingtin-associated protein 40 kDa): DRSC20085 1.16
Mst33A: DRSC03371 0.75
CG10073: DRSC05961 -0.07
CG11145: DRSC06049 -0.45
Atox1 (Antioxidant 1 copper chaperone): DRSC22416 -0.28

Ordered by “replicate 1, z-score of dpERK with insulin” (lowest first): some entries from above
target gene	amplicon	replicate 1, z-score of dpERK with insulin
CG6178	DRSC15984	0.37
SA1 (Stromalin 1)	DRSC03424	0.91
CG33642	DRSC01325	1.07
